# Experimental data as given in article PMC12690290.
# By UniProt entry, the sequences of proteins in these tests, tags left out. Where a name states a change or a piece, a line headed by the entry shows the natural chain unless it says otherwise. Residues count along the entry.
# UniProt P01009, residues 25-418: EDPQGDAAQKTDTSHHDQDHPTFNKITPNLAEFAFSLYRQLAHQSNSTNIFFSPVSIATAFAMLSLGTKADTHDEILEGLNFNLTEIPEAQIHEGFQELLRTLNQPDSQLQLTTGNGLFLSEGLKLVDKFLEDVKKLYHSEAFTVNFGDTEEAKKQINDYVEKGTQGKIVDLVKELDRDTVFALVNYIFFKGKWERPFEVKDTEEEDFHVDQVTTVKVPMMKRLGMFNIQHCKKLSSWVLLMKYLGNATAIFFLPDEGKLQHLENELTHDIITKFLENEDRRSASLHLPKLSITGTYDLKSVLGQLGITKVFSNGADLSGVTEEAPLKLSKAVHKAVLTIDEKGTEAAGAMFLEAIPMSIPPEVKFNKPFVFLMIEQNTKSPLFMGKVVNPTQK
# UniProt P01019, residues 25-476: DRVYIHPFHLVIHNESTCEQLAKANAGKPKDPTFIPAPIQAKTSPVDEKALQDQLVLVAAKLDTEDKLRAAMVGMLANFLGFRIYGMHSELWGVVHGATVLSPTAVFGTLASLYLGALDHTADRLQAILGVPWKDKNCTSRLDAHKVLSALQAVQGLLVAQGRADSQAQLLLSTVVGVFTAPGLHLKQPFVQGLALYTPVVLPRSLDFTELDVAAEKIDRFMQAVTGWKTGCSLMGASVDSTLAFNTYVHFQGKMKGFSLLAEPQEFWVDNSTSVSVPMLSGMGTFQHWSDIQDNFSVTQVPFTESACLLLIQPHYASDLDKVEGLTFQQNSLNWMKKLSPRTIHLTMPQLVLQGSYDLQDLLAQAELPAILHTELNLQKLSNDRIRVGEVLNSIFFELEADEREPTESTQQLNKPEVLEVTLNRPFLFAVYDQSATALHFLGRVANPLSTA
# UniProt P00915: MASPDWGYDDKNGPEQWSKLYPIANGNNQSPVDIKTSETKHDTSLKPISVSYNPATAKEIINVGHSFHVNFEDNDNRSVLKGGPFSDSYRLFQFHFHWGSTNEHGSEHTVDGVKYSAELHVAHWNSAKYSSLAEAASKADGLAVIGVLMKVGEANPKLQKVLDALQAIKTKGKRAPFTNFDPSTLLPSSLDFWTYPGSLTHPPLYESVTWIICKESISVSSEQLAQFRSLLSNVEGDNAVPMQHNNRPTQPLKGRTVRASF
# UniProt P03951, residues 19-625: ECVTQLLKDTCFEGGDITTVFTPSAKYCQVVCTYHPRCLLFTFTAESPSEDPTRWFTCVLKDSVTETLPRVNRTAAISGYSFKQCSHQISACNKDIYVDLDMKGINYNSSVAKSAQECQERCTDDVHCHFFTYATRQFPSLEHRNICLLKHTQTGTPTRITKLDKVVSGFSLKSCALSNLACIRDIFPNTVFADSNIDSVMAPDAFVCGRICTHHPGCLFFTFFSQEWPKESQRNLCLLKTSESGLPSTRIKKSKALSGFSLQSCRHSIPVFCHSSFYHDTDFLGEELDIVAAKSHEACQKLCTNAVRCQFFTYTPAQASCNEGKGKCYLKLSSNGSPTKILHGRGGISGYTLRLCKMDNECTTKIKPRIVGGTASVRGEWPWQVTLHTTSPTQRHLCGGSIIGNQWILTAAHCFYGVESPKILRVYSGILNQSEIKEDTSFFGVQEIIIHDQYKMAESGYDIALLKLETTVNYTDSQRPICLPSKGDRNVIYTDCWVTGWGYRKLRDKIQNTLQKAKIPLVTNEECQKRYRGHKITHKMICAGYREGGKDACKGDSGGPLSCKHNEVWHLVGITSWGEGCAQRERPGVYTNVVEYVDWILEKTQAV
# UniProt P00748, residues 20-615: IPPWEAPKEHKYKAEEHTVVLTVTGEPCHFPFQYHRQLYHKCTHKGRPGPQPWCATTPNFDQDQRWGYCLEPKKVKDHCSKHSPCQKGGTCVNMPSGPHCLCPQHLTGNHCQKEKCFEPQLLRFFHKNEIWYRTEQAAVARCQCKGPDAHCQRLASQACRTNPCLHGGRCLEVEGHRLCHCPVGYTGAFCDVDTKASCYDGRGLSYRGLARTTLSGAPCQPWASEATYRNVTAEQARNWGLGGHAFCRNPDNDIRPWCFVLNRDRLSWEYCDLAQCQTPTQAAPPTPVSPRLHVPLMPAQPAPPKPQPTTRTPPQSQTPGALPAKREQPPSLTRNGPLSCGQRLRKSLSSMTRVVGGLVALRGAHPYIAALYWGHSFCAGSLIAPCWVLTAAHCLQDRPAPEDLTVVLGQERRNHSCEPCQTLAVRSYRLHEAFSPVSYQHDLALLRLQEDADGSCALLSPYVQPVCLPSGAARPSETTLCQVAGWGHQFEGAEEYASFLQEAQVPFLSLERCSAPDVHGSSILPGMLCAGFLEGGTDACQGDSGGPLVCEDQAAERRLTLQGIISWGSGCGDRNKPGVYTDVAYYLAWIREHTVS
# UniProt P02747, residues 29-245: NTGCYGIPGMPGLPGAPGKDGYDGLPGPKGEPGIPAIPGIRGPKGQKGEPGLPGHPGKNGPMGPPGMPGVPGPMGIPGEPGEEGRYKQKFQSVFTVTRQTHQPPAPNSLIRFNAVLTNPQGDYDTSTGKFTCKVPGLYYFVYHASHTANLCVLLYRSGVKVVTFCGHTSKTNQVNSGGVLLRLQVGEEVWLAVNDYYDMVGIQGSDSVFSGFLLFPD
# UniProt P02746, residues 28-253: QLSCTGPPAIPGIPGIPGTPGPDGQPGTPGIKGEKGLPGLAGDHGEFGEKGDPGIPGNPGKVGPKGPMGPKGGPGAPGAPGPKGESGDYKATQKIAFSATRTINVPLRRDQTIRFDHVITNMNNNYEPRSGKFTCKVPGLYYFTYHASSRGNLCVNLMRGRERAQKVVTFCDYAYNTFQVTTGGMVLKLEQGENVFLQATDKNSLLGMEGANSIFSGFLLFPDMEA
# UniProt O75636, residues 24-299: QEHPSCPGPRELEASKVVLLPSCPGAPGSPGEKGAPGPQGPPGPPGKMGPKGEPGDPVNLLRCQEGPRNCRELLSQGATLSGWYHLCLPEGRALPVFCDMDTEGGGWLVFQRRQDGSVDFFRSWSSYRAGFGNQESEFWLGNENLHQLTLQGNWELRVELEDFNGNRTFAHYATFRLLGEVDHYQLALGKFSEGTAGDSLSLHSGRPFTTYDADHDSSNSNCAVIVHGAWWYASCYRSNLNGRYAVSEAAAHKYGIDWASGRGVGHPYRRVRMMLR
# UniProt P00738, residues 19-406: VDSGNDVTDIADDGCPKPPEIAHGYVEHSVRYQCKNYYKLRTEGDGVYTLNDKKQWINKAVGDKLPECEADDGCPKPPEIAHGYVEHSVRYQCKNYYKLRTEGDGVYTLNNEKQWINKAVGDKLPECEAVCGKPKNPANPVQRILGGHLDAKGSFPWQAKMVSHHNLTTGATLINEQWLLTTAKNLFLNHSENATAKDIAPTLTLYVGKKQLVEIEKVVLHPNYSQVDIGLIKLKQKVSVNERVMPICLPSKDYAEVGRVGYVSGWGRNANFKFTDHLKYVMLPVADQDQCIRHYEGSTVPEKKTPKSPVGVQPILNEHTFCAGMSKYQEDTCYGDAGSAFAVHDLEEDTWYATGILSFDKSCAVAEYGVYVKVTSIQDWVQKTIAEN
# UniProt P40189, residues 23-918: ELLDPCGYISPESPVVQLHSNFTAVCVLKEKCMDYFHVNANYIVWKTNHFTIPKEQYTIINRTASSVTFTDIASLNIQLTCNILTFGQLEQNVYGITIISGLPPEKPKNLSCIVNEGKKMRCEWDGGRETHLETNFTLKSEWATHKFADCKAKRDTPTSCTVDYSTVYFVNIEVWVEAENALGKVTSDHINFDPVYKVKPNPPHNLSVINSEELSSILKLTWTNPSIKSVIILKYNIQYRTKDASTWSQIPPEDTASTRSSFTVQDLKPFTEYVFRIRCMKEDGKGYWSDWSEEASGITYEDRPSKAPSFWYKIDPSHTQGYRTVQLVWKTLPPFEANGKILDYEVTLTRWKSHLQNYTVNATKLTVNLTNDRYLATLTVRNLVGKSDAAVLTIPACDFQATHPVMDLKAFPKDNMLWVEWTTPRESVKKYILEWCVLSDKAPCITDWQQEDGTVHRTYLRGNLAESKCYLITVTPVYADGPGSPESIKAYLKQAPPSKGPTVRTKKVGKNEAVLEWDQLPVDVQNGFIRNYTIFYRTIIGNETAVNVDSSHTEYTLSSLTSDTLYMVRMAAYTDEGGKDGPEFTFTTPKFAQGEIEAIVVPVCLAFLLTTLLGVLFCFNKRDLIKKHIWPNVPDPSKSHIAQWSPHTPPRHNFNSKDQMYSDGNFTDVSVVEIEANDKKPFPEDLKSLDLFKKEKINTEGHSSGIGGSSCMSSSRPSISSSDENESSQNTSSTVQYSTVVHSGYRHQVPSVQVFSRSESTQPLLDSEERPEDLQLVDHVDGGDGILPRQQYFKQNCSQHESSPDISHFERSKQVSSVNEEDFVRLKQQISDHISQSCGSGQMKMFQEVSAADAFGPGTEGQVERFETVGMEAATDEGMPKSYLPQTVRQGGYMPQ
# UniProt P51884, residues 19-338: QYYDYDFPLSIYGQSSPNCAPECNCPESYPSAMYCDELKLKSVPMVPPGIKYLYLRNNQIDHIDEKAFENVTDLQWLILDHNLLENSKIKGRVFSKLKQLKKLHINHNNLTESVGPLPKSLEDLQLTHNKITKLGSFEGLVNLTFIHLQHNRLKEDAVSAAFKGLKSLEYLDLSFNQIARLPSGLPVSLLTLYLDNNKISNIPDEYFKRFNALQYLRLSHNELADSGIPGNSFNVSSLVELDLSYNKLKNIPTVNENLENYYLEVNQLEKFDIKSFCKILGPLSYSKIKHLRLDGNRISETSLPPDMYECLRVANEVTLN
# UniProt P55058, residues 18-493: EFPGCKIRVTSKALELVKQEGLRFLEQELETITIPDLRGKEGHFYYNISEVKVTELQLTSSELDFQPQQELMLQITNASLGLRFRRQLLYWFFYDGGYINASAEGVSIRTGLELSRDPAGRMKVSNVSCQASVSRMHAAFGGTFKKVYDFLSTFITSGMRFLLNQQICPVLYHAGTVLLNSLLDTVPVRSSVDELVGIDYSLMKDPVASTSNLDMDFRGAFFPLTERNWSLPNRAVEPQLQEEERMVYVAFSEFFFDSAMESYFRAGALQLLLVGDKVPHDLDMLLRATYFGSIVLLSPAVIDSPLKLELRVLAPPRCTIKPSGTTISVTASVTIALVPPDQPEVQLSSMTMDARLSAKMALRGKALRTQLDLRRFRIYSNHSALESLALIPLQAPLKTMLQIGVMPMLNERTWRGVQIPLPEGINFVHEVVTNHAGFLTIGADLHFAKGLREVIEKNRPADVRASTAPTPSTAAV
# UniProt P07988: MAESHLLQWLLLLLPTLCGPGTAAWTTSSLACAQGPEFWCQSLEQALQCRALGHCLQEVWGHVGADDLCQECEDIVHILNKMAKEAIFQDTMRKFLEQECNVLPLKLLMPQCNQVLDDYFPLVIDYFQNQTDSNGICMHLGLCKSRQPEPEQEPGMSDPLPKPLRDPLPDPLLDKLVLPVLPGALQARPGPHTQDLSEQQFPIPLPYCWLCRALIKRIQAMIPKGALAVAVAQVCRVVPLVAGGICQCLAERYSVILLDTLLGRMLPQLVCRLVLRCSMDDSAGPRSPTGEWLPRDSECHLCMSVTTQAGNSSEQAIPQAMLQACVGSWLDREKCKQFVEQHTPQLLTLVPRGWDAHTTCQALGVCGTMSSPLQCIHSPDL
# No constants are given. Whether binding was seen depends on the method and setting. In cells and extracts the contact can be indirect. Here binding means that the protein was enriched with, or labelled near, the bait; the list need not be complete. Where a sequence is shown, tags or fusion partners need not be part of it.
# B1: Histidine-rich glycoprotein (protein, UniProt P04196 19-525)
# chain: VSPTDCSAVEPEAEKALDLINKRRRDGYLFQLLRIADAHLDRVENTTVYYLVLDVQESDCSVLSRKYWNDCEPPDSRRPSEIVIGQCKVIATRHSHESQDLRVIDFNCTTSSVSSALANTKDSPVLIDFFEDTERYRKQANKALEKYKEENDDFASFRVDRIERVARVRGGEGTGYFVDFSVRNCPRHHFPRHPNVFGFCRADLFYDVEALDLESPKNLVINCEVFDPQEHENINGVPPHLGHPFHWGGHERSSTTKPPFKPHGSRDHHHPHKPHEHGPPPPPDERDHSHGPPLPQGPPPLLPMSCSSCQHATFGTNGAQRHSHNNNSSDLHPHKHHSHEQHPHGHHPHAHHPHEHDTHRQHPHGHHPHGHHPHGHHPHGHHPHGHHPHCHDFQDYGPCDPPPHNQGHCCHGHGPPPGHLRRRGPGKGPRPFHCRQIGSVYRLPPLRKGEVLPLPEANFPSFPLPHHKHPLKPDNQPFPQSVSESCPGKFKSGFPQVSMFFTHTFPK
# B2: Sex hormone- binding globulin (protein, UniProt P04278 30-402)
# chain: LRPVLPTQSAHDPPAVHLSNGPGQEPIAVMTFDLTKITKTSSSFEVRTWDPEGVIFYGDTNPKDDWFMLGLRDGRPEIQLHNHWAQLTVGAGPRLDDGRWHQVEVKMEGDSVLLEVDGEEVLRLRQVSGPLTSKRHPIMRIALGGLLFPASNLRLPLVPALDGCLRRDSWLDKQAEISASAPTSLRSCDVESNPGIFLPPGTQAEFNLRDIPQPHAEPWAFSLDLGLKQAAGSGHLLALGTPENPSWLSLHLQDQKVVLSSGSGPGLDLPLVLGLPLQLKLSMSRVVLSQGSKMKALALPPLGLAPLLNLWAKPQGRLFLGALPGEDSSTSFCLNGLWAQGQRLDVDQALNRSHEIWTHSCPQSPGNGTDASH
# B3: Ceruloplasmin (enzyme, UniProt P00450 20-1065)
# chain: KEKHYYIGIIETTWDYASDHGEKKLISVDTEHSNIYLQNGPDRIGRLYKKALYLQYTDETFRTTIEKPVWLGFLGPIIKAETGDKVYVHLKNLASRPYTFHSHGITYYKEHEGAIYPDNTTDFQRADDKVYPGEQYTYMLLATEEQSPGEGDGNCVTRIYHSHIDAPKDIASGLIGPLIICKKDSLDKEKEKHIDREFVVMFSVVDENFSWYLEDNIKTYCSEPEKVDKDNEDFQESNRMYSVNGYTFGSLPGLSMCAEDRVKWYLFGMGNEVDVHAAFFHGQALTNKNYRIDTINLFPATLFDAYMVAQNPGEWMLSCQNLNHLKAGLQAFFQVQECNKSSSKDNIRGKHVRHYYIAAEEIIWNYAPSGIDIFTKENLTAPGSDSAVFFEQGTTRIGGSYKKLVYREYTDASFTNRKERGPEEEHLGILGPVIWAEVGDTIRVTFHNKGAYPLSIEPIGVRFNKNNEGTYYSPNYNPQSRSVPPSASHVAPTETFTYEWTVPKEVGPTNADPVCLAKMYYSAVEPTKDIFTGLIGPMKICKKGSLHANGRQKDVDKEFYLFPTVFDENESLLLEDNIRMFTTAPDQVDKEDEDFQESNKMHSMNGFMYGNQPGLTMCKGDSVVWYLFSAGNEADVHGIYFSGNTYLWRGERRDTANLFPQTSLTLHMWPDTEGTFNVECLTTDHYTGGMKQKYTVNQCRRQSEDSTFYLGERTYYIAAVEVEWDYSPQREWEKELHHLQEQNVSNAFLDKGEFYIGSKYKKVVYRQYTDSTFRVPVERKAEEEHLGILGPQLHADVGDKVKIIFKNMATRPYSIHAHGVQTESSTVTPTLPGETLTYVWKIPERSGAGTEDSACIPWAYYSTVDQVKDLYSGLIGPLIVCRRPYLKVFNPRRKLEFALLFLVFDENESWYLDDNIKTYSDHPEKVNKDDEEFIESNKMHAINGRMFGNLQGLTMHVGDEVNWYLMGMGNEIDLHTVHFHGHSFQYKHRGVYSSDVFDIFPGTYQTLEMFPRTPGIWLLHCHVTDHIHAGMETTYTVLQNEDTKSG
# B4: Haptoglobin related protein (protein, UniProt P00739 1-348)
# chain: MSDLGAVISLLLWGRQLFALYSGNDVTDISDDRFPKPPEIANGYVEHLFRYQCKNYYRLRTEGDGVYTLNDKKQWINKAVGDKLPECEAVCGKPKNPANPVQRILGGHLDAKGSFPWQAKMVSHHNLTTGATLINEQWLLTTAKNLFLNHSENATAKDIAPTLTLYVGKKQLVEIEKVVLHPNYHQVDIGLIKLKQKVLVNERVMPICLPSKNYAEVGRVGYVSGWGQSDNFKLTDHLKYVMLPVADQYDCITHYEGSTCPKWKAPKSPVGVQPILNEHTFCVGMSKYQEDTCYGDAGSAFAVHDLEEDTWYAAGILSFDKSCAVAEYGVYVKVTSIQHWVQKTIAEN
# B5: Apolipoprotein C1 (protein, UniProt P02654 27-83)
# chain: TPDVSSALDKLKEFGNTLEDKARELISRIKQSELSAKMREWFSETFQKVKEKLKIDS
# B6: Cadherin 5 (protein, UniProt P33151 48-784)
# chain: DWIWNQMHIDEEKNTSLPHHVGKIKSSVSRKNAKYLLKGEYVGKVFRVDAETGDVFAIERLDRENISEYHLTAVIVDKDTGENLETPSSFTIKVHDVNDNWPVFTHRLFNASVPESSAVGTSVISVTAVDADDPTVGDHASVMYQILKGKEYFAIDNSGRIITITKSLDREKQARYEIVVEARDAQGLRGDSGTATVLVTLQDINDNFPFFTQTKYTFVVPEDTRVGTSVGSLFVEDPDEPQNRMTKYSILRGDYQDAFTIETNPAHNEGIIKPMKPLDYEYIQQYSFIVEATDPTIDLRYMSPPAGNRAQVIINITDVDEPPIFQQPFYHFQLKENQKKPLIGTVLAMDPDAARHSIGYSIRRTSDKGQFFRVTKKGDIYNEKELDREVYPWYNLTVEAKELDSTGTPTGKESIVQVHIEVLDENDNAPEFAKPYQPKVCENAVHGQLVLQISAIDKDITPRNVKFKFILNTENNFTLTDNHDNTANITVKYGQFDREHTKVHFLPVVISDNGMPSRTGTSTLTVAVCKCNEQGEFTFCEDMAAQVGVSIQAVVAILLCILTITVITLLIFLRRRLRKQARAHGKSVPEIHEQLVTYDEEGGGEMDTTSYDVSVLNSVRRGGAKPPRPALDARPSLYAQVQKPPRHAPGAHGGPGEMAAMIEVKKDEADHDGDGPPYDTLHIYGYEGSESIAESLSSLGTDSSDSDVDYDFLNDWGPRFKMLAELYGSDPREELLY
# Target: T1, mesoheme–rabbit hemopexin (1:1 heme–HPX complex) (rabbit) (UniProt P20058)
# T1 sequence: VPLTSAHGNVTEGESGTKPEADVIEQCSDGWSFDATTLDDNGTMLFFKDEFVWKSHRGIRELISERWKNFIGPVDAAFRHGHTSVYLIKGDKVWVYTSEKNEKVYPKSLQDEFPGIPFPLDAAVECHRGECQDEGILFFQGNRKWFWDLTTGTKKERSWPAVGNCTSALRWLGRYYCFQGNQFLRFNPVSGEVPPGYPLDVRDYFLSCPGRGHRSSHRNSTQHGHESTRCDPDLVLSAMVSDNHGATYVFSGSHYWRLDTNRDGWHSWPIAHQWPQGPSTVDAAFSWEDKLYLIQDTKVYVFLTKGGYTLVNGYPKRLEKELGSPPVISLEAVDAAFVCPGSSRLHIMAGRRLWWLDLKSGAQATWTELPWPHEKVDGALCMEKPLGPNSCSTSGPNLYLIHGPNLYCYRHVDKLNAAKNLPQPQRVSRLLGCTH
# Experiment: affinity purification with mass spectrometry; proto-heme–human HPX, mesoheme–rabbit HPX or holo-human Tf Affi-Gel 15; detergent extracts of primary human hepatocytes; proteins found on underivatized, mouse IgG or ovalbumin resins filtered out; only the target purified
row,Molecule,binding
1,Alpha-1 antitrypsin (from UniProt P01009 25-418),binds
2,Angiotensinogen (from UniProt P01019 25-476),binds
3,Apolipoprotein B (from UniProt P04114 28-4563),binds
4,Carbonic anhydrase 1 (from UniProt P00915 1-261) (enzyme),binds
5,Coagulation factor XI (from UniProt P03951 19-625) (enzyme),binds
6,Coagulation factor XII (from UniProt P00748 20-615) (enzyme),binds
7,Complement C1q C chain (from UniProt P02747 29-245),binds
8,Complement C1q subcomponent subunit B (from UniProt P02746 28-253),binds
9,Ficolin 3 (from UniProt O75636 24-299),binds
10,Haptoglobin (from UniProt P00738 19-406),binds
11,Interleukin 6 cytokine family signal transducer (from UniProt P40189 23-918) (receptor),binds
12,Lumican (from UniProt P51884 19-338),binds
13,Multiple Epidermal Growth Factor-like Domains Protein 10 (from UniProt Q96KG7 26-1140) (receptor),binds
14,Phospholipid transfer protein (from UniProt P55058 18-493),binds
15,Surfactant protein B (from UniProt P07988),binds
16,B1,binds
17,B2,binds
18,B3,binds
19,B4,binds
20,B5,binds
21,B6,binds
